According to paper PMC4728404:
These are yes or no findings as the source states them, for the method shown. In cells and extracts the contact can be indirect. Some results given as binding are weak or reduced against the parent protein; the word gives no strength. For some assays here: Sequences can lack the tags named with a protein. Blank lines part the entries; values can stand above or below the molecule they belong to.

Chains of the proteins cited; added tags and fusions are not shown.
UniProt P55737: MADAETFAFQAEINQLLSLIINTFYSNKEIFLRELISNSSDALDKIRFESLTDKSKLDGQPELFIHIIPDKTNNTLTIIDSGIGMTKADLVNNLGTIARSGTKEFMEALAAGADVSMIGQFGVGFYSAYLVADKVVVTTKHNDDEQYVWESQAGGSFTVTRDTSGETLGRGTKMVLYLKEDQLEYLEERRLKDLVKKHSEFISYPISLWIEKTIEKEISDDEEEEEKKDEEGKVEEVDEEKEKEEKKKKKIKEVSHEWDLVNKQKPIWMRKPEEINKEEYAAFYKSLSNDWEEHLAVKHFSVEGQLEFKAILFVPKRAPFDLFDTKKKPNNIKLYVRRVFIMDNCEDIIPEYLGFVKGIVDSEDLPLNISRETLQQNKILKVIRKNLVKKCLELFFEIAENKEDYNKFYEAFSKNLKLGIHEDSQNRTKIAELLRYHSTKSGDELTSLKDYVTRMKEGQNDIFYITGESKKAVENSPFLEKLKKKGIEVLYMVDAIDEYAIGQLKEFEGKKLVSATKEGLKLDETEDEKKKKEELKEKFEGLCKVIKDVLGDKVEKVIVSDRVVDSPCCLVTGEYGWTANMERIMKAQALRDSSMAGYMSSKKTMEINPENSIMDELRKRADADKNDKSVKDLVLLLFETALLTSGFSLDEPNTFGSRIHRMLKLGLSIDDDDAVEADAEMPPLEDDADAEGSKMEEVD

How the values were obtained:
[1] = molecular target: T1, nYFP-SGT1b (Arabidopsis thaliana) (UniProt Q9SUT5); experiment: split reporter; BiFC: nYFP and cYFP fusions agro-infiltrated into N. benthamiana leaf epidermal cells, confocal imaging
T1 sequence: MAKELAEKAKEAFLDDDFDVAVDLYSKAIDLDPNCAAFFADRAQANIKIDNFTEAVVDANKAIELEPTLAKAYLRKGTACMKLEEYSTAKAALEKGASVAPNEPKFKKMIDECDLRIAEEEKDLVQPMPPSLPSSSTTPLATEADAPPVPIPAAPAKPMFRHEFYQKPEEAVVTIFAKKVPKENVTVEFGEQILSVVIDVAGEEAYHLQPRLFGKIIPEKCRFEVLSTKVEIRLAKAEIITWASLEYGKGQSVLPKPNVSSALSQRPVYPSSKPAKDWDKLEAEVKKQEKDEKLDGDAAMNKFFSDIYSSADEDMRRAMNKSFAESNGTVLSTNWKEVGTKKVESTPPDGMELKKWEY

[2] = molecular target: T2, TIR1-VENUS (pTIR1:gTIR1-VENUS plants) (Arabidopsis thaliana) (UniProt Q570C0); experiment: co-IP; same procedure with 4 ug anti-GFP antibody; total protein from 7-day-old pTIR1:gTIR1-VENUS seedlings; blots with anti-GFP, anti-HSP90, anti-SGT1
T2 sequence: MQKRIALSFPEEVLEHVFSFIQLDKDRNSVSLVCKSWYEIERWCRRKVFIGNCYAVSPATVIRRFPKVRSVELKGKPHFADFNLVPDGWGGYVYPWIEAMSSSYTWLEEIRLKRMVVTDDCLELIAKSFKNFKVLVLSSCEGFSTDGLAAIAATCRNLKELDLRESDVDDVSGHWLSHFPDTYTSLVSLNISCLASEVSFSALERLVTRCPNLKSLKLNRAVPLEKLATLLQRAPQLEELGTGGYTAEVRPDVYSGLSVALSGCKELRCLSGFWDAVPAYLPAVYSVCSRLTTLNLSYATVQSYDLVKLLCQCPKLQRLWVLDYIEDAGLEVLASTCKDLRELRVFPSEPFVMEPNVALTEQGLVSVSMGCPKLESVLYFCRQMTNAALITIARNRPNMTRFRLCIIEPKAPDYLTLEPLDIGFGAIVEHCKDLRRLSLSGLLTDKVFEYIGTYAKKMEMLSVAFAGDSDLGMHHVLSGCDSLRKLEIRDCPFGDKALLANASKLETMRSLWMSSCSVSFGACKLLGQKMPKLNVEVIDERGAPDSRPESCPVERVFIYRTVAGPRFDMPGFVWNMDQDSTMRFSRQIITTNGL

[3] = molecular target: T3, TIR1-Myc (pDEX:TIR1-Myc plants) (Arabidopsis thaliana) (UniProt Q570C0); experiment: co-IP; anti-Myc antibody crosslinked to Protein G Dynabeads; 2 mg total protein from 7-day-old pGVG:TIR1-Myc seedlings treated with or without 30 uM dexamethasone for 24 h; 4 h at 4 °C; blots with anti-Myc, anti-HSP90, anti-SGT1
T3 sequence: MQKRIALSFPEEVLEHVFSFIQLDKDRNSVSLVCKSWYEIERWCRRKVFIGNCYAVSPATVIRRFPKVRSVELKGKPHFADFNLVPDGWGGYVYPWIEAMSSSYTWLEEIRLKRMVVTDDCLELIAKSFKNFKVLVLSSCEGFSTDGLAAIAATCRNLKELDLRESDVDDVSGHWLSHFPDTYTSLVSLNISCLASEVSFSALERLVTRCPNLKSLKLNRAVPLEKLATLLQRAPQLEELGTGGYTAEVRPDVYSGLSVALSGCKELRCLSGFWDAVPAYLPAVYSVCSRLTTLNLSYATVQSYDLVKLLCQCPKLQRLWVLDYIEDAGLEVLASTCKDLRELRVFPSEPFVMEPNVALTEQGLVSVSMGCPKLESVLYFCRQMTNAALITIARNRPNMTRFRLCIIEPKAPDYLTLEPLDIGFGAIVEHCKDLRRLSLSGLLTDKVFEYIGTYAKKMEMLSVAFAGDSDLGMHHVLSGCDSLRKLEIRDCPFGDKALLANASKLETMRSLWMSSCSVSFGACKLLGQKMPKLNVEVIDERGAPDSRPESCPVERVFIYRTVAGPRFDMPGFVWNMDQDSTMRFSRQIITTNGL

[4] = molecular target: T4, nYFP-TIR1 (Arabidopsis thaliana) (UniProt Q570C0); experiment: split reporter; BiFC: nYFP and cYFP fusions agro-infiltrated into N. benthamiana leaf epidermal cells, confocal imaging
T4 sequence: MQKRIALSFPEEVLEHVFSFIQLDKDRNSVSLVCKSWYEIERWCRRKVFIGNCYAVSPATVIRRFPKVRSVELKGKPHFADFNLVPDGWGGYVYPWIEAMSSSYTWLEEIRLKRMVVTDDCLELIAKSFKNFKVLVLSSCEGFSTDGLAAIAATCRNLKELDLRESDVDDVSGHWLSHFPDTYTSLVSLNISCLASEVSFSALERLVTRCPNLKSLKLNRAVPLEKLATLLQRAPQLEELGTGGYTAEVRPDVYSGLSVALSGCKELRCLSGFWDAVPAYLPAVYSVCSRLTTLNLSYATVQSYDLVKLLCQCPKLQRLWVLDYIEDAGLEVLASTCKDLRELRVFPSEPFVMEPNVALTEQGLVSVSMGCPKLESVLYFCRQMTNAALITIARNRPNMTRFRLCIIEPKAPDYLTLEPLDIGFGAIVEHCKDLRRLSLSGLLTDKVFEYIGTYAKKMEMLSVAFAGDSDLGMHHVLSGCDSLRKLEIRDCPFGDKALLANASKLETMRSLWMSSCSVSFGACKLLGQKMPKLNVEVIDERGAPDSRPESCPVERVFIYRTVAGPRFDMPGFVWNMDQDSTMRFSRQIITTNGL

GST-SGT1b (Arabidopsis) = molecular target: T5, GST-SGT1b (Arabidopsis) (UniProt Q9SUT5); experiment: pull-down; equal amounts of GST-tagged proteins purified from E. coli mixed with TIR1-Myc from a TNT extract, 4 °C for 4 h, washing, anti-Myc blot; only the target purified
T5 sequence: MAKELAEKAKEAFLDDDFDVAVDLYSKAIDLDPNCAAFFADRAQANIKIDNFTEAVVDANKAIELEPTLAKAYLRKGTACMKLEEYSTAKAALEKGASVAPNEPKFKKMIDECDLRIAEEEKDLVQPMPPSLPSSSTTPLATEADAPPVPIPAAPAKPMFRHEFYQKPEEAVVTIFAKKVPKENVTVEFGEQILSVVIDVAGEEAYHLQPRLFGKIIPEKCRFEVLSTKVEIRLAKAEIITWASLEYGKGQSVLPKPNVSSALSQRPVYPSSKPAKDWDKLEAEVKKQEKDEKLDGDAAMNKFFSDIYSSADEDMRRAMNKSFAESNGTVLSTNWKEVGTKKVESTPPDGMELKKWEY

B2: cYFP-SGT1b (protein, UniProt Q9SUT5 1-358)
chain: MAKELAEKAKEAFLDDDFDVAVDLYSKAIDLDPNCAAFFADRAQANIKIDNFTEAVVDANKAIELEPTLAKAYLRKGTACMKLEEYSTAKAALEKGASVAPNEPKFKKMIDECDLRIAEEEKDLVQPMPPSLPSSSTTPLATEADAPPVPIPAAPAKPMFRHEFYQKPEEAVVTIFAKKVPKENVTVEFGEQILSVVIDVAGEEAYHLQPRLFGKIIPEKCRFEVLSTKVEIRLAKAEIITWASLEYGKGQSVLPKPNVSSALSQRPVYPSSKPAKDWDKLEAEVKKQEKDEKLDGDAAMNKFFSDIYSSADEDMRRAMNKSFAESNGTVLSTNWKEVGTKKVESTPPDGMELKKWEY
- binding [4]: binds

B3: TIR1-Myc synthesized in a TNT extract (protein, UniProt Q570C0 1-594)
chain: MQKRIALSFPEEVLEHVFSFIQLDKDRNSVSLVCKSWYEIERWCRRKVFIGNCYAVSPATVIRRFPKVRSVELKGKPHFADFNLVPDGWGGYVYPWIEAMSSSYTWLEEIRLKRMVVTDDCLELIAKSFKNFKVLVLSSCEGFSTDGLAAIAATCRNLKELDLRESDVDDVSGHWLSHFPDTYTSLVSLNISCLASEVSFSALERLVTRCPNLKSLKLNRAVPLEKLATLLQRAPQLEELGTGGYTAEVRPDVYSGLSVALSGCKELRCLSGFWDAVPAYLPAVYSVCSRLTTLNLSYATVQSYDLVKLLCQCPKLQRLWVLDYIEDAGLEVLASTCKDLRELRVFPSEPFVMEPNVALTEQGLVSVSMGCPKLESVLYFCRQMTNAALITIARNRPNMTRFRLCIIEPKAPDYLTLEPLDIGFGAIVEHCKDLRRLSLSGLLTDKVFEYIGTYAKKMEMLSVAFAGDSDLGMHHVLSGCDSLRKLEIRDCPFGDKALLANASKLETMRSLWMSSCSVSFGACKLLGQKMPKLNVEVIDERGAPDSRPESCPVERVFIYRTVAGPRFDMPGFVWNMDQDSTMRFSRQIITTNGL
- binding (GST-SGT1b (Arabidopsis)): binds

Second part, the molecule after the results:

- binding [1]: binds
Molecule: cYFP-HSP90.2 (from UniProt P55737 1-699)

- binding [2]: binds
- binding [3]: binds
B1: SGT1b (endogenous, Arabidopsis seedlings) (protein, UniProt Q9SUT5 1-358)
chain: MAKELAEKAKEAFLDDDFDVAVDLYSKAIDLDPNCAAFFADRAQANIKIDNFTEAVVDANKAIELEPTLAKAYLRKGTACMKLEEYSTAKAALEKGASVAPNEPKFKKMIDECDLRIAEEEKDLVQPMPPSLPSSSTTPLATEADAPPVPIPAAPAKPMFRHEFYQKPEEAVVTIFAKKVPKENVTVEFGEQILSVVIDVAGEEAYHLQPRLFGKIIPEKCRFEVLSTKVEIRLAKAEIITWASLEYGKGQSVLPKPNVSSALSQRPVYPSSKPAKDWDKLEAEVKKQEKDEKLDGDAAMNKFFSDIYSSADEDMRRAMNKSFAESNGTVLSTNWKEVGTKKVESTPPDGMELKKWEY
